From article doi:10.1101/2022.06.21.497065
Results are given in words; binding and its absence hold for the method and conditions named. For some assays here: Binding seen in cells or lysates may run through a third protein. Some entries that bind do so weakly or less than the wild type. Values belong to the molecule of their own block, whether it stands above or below them.

By UniProt entry, the sequences of proteins in these tests, tags left out.
UniProt P63158: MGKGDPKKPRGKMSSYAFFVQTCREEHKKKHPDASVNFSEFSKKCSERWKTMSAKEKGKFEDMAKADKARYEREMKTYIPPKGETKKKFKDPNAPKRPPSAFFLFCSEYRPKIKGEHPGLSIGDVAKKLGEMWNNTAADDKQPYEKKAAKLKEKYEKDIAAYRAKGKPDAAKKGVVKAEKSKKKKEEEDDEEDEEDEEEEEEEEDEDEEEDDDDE
UniProt P04406: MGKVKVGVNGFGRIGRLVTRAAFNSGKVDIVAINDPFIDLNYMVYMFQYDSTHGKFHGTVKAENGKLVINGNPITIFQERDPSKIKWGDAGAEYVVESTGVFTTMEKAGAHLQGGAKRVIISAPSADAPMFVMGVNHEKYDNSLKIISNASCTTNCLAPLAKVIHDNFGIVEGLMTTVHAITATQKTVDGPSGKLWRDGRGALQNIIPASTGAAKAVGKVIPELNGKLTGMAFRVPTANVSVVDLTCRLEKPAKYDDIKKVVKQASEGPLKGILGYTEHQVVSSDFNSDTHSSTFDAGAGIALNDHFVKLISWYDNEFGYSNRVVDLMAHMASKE

Tests used:
[1] = target: T1, Siah1 recombinant protein (UniProt Q8IUQ4); assay: co-IP
T1 sequence: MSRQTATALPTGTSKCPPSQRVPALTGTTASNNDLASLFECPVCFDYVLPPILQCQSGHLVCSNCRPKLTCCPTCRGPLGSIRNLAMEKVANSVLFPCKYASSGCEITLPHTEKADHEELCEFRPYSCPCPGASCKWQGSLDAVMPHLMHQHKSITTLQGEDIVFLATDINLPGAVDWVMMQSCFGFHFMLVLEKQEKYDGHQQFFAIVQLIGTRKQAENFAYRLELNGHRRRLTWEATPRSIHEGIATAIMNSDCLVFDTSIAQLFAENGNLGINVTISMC

HMGB1 = HMGB1 (UniProt P63158); assay: co-IP

binding [1]: binds
Molecule: GAPDH recombinant protein (from UniProt P04406 1-335)

binding (HMGB1): binds
B1: HMGB2 (protein, UniProt P30681 1-210)
chain: MGKGDPNKPRGKMSSYAFFVQTCREEHKKKHPDSSVNFAEFSKKCSERWKTMSAKEKSKFEDLAKSDKARYDREMKNYVPPKGDKKGKKKDPNAPKRPPSAFFLFCSENRPKIKIEHPGLSIGDTAKKLGEMWSEQSAKDKQPYEQKAAKLKEKYEKDIAAYRAKGKSEAGKKGPGRPTGSKKKNEPEDEEEEEEEEEEEDDEEEEEDEE
